US20050037446A1, “Agents that recognize src when phosphorylated at serine 17” (priority 2001, published 2005)
At least one structure is not confirmed: it was looked up by name or label, or the drawing left a doubt.

Legend:
ERK1/2 = assay: ERK phosphorylation Western blot, Hek293 cells; type: cell-based; details: 10 μM, 20 minutes pretreatment
Experimental: To examine the downstream consequences of Src-dependent signaling in Hek293 cells, ERK activation was measured using pERK antibodies (pERK1/2). Hek293 cells received no pretreatment or were pretreated for 20 minutes with H89 (10 μM), PP2 (10 μM), or LY (10 μM), and stimulated for 5 minutes with isoproterenol (10 μM), Forskolin (10 μM), or 100 ng/ml EGF, using the methods described above. Cell lysates were analyzed by Western blotting for the presence of pERK1/2 (New England Biolabs) or total ERK2 (Santa Cruz Biotechnology) as a control for protein loading.
To determine the role of PKA phosphorylation of Src serine 17 in ERK activation by cAMP, Hek293 cells were transfected with myc-ERK2 in the presence or absence of SrcS17A or SrcS17D, and stimulated with 10 μM isoproterenol. MycERK2 was immunoprecipitated from cell lysates using an agarose-coupled Myc antibody followed by western blotting for phospho-ERK (pMycERK2, upper panel) or total MycERK2 with a Myc antibody, as a control for protein loading.

AKT = AKT phosphothreonine 308 Western blot, Hek293 cells; type: cell-based; details: 10 μM, 20 minutes pretreatment
Experimental: To determine the physiological role of Ras signaling in Hek293 cells, a well-known Ras effector, phosphoinositol-3 kinase (PI3-K) and its target, AKT (a serine/threonine kinase which participates in a variety of cellular effects including cell survival, adhesion, and cell growth) were examined as follows. Hek293 cells received no pretreatment or were pretreated for 20 minutes with H89 (10 μM), PP2 (10 μM), or LY (10 μM), and stimulated for 5 minutes with isoproterenol. Cell lysates were analyzed by Western blotting for phospho-AKT (PAKT 308, Cell Signaling, Beverly, Mass.) or total AKT (Cell Signaling) as a control. Isoproterenol activated AKT, as measured by phosphorylation-specific antibodies to phosphothreonine 308 (AKT). This phosphorylation required P13-K as LY blocked isoproterenol-induced phosphorylation at this site. Moreover, this phosphorylation was blocked by PP2, but not H89, indicating the requirement of SFKs, but not PKA. Therefore, isoproterenol's activation of AKT proceeds through Src and PI3-K but not PKA.
Similar amounts of cell lysate (determined by protein concentrations) were immunoprecipitated using an agarose-coupled HA antibody followed by Western blotting for phospho-AKT (PHA-AKT 308) or total HA-AKT with an HA antibody (12CA5, Boehringer Mannheim, Indianapolis, Ind.).

O=c1cc(N2CCOCC2)oc2c(-c3ccccc3)cccc12 [LY, 2-(4-Morpholinyl)-8-phenyl-4H-1-bemzopyran-4-one]
Effect of inhibitor on isoproterenol's phosphorylation of ERK (ERK1/2): did not block
Effect of inhibitor on isoproterenol-induced AKT phosphorylation (AKT): blocked
